Article PMC3031599
These are yes or no findings as the source states them, for the method shown. Binding seen in cells or lysates may run through a third protein. Some entries that bind do so weakly or less than the wild type.

Protein sequences, listed by entry. Tags and fused reporters are not part of them.
UniProt Q93009: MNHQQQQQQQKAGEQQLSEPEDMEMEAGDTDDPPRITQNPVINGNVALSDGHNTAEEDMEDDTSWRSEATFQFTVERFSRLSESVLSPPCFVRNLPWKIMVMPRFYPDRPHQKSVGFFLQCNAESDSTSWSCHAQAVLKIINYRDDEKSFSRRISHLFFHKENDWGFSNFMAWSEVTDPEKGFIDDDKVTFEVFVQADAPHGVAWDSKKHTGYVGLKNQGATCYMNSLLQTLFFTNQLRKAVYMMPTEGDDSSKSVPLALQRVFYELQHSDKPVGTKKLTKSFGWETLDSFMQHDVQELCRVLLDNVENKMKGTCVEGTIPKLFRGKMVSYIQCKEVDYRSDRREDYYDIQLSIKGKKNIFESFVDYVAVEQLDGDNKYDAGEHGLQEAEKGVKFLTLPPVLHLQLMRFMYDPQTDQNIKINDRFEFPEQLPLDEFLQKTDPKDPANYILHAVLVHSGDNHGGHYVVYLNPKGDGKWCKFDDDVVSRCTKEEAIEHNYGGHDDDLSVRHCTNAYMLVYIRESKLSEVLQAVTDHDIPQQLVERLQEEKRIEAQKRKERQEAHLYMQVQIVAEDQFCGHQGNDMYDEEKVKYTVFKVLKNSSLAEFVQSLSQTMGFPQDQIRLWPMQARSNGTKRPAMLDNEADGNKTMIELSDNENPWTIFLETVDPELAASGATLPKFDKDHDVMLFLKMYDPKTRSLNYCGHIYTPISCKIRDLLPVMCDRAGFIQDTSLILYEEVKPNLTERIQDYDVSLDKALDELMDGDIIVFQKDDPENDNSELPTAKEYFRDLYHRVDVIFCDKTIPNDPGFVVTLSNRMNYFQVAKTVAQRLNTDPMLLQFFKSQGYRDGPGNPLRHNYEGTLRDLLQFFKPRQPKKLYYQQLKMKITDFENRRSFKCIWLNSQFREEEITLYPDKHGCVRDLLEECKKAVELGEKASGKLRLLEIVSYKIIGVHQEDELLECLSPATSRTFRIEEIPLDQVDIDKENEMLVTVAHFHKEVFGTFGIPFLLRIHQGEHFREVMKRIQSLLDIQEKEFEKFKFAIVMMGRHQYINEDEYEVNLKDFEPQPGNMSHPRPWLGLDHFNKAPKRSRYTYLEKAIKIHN
UniProt P29590: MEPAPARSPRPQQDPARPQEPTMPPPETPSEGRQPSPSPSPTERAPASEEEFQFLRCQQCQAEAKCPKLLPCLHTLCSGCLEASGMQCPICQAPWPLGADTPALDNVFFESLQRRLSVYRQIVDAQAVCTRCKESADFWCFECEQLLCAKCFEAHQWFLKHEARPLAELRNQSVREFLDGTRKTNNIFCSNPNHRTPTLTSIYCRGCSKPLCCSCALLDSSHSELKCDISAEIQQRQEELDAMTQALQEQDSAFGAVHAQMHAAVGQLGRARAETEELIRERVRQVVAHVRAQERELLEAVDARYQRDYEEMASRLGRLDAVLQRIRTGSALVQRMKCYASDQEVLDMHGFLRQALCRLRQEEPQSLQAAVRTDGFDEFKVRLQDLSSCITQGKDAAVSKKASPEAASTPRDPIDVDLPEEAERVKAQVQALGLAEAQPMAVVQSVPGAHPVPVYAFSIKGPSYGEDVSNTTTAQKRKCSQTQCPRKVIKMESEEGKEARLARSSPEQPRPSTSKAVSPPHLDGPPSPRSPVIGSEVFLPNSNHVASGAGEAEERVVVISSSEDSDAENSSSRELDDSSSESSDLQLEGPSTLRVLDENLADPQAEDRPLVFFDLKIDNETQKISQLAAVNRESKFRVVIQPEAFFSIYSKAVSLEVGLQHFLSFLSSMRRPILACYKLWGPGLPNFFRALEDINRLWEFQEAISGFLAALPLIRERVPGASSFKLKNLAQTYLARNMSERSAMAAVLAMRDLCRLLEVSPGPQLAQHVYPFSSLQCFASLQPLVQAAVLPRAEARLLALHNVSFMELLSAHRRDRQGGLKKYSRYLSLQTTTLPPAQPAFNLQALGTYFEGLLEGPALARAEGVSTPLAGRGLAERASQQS

Columns and labels:
[1] = target: ubiquitin specific protease USP7 (human (endogenous in CNE2)) (UniProt Q93009); assay: co-IP; endogenous proteins from CNE2 nuclear extracts (nuclei by hypotonic lysis, RIPA buffer: 50 mM Tris.Cl pH 8.0, 150 mM NaCl, 1% NP40, 0.1% sodium deoxycholate); 1.5 mg lysate overnight at 4°C with 2 µg anti-PML or anti-USP7 antibody on ExactaCruz resin; blotted with the reciprocal antibody; normal rabbit IgG as negative control
[2] = target: promyelocytic leukemia (PML) tumor suppressor protein, endogenous PML isoforms (human (endogenous in CNE2)) (UniProt P29590); assay: as above

| Substance | binding [1] | binding [2] |
| --- | --- | --- |
| promyelocytic leukemia (PML) tumor suppressor protein, endogenous PML isoforms (from UniProt P29590 1-882) | binds |  |
| ubiquitin specific protease USP7 (from UniProt Q93009 1-1102) (enzyme) |  | binds |
